# Laboratory results from patent publication US20250327027A1, “METHODS TO GENERATE ENHANCED TUMOR INFILTRATING LYMPHOCYTES THROUGH MICROFLUIDIC DELIVERY” (STEMCELL TECHNOLOGIES CANADA INC., priority 2021, published 2025).
# Amino acid sequences for entries named in this document (tags omitted). Residues count along the entry.
# UniProt P16871, residues 21-459: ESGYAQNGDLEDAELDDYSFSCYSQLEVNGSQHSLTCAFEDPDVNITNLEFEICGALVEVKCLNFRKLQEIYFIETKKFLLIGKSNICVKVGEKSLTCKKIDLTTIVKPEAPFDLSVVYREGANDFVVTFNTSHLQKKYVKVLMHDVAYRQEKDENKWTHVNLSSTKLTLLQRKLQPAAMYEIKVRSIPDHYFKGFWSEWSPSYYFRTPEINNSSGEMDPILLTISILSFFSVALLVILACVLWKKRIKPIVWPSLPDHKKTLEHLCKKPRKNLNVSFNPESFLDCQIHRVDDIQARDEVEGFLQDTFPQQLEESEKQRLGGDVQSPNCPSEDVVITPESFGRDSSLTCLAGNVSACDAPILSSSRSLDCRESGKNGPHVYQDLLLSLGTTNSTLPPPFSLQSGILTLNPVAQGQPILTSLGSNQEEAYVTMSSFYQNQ
# Results are given in words; binding and its absence hold for the method and conditions named. Some results given as binding are weak or reduced against the parent protein; the word gives no strength.
# B1: membrane-bound IL-7 (ligand)
# chain: MMVDGDNSHVEMKLAVDEEENADNNTKANVTKPKRCSGSICYGTIAVIVFFLIGFMIGYLGYCKSSDGPGETGGGGGSGGGGSGGGGSDCDIEGKDGKQYESVLMVSIDQLLDSMKEIGSNCLNNEFNFFKRHICDANKEGMFLFRAARKLRQFLKMNSTGDFDLHLLKVSEGTTILLNCTGQVKGRKPAALGEAQPTKSLEENKSLKEQKKLNDLCFLKRLLQEIKTCWNKILMGTKEH
# Target: endogenous IL-7R (CD127) (human) (UniProt P16871)
# Test: Flow cytometry of TILs squeeze processed with mbIL-7 mRNA; binding inferred from loss of anti-IL-7R staining
binder,measurement,value
B1,binding,binds
